# Over roughly 33,000 sequences, “E-score (-0.5 to 0.5)” has its median near -0.0059; the highest 2% begin near 0.26. The list shows a part of the results.
# Target: T1, Cin5 (UniProt P40917)
# T1 sequence: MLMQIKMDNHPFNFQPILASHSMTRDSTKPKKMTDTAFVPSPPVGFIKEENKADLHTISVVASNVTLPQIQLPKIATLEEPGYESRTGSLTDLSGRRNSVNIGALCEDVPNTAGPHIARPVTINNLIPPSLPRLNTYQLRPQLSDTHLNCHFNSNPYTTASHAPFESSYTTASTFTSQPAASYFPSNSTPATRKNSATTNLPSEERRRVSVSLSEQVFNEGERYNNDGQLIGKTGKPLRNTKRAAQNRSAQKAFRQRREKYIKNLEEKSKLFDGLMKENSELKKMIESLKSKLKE
# Test: PBM E-score (8-mer binding enrichment) (E-score (-0.5 to 0.5)); higher = stronger / more preferred TF binding
# Conditions: protein concentration: 100 nM; construct: GST-full length
# How it was run: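 Bound GST-tagged yeast transcription factors, applied at about 100-200 nM to double-stranded universal all-10-mer Agilent arrays, were detected with fluorescent anti-GST. Scans were normalised with masliner. A modified Wilcoxon-Mann-Whitney statistic, the E-score, was assigned to each ungapped eight-base word pooled with its reverse complement by the Universal PBM Analysis Suite.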
row,Sequence,PBM E-score
1,CGAATTTC,0.158
2,CCTTTGGC,-0.223
3,ATCTAGCG,-0.0816
4,GTCCGAAC,-0.176
5,AGGGGCAC,-0.217
6,CGCGTATA,-0.0479
7,CGGATTAA,0.115
8,CCGTGGAC,-0.221
9,CACAAACG,0.113
10,GCAACTAC,0.0148
11,CGAGGAGC,-0.245
12,CACGGGCC,-0.296
13,TAGAACAA,-0.0301
14,CACGACTA,-0.232
15,GCTAGCCA,-0.00387
16,GTTACCGA,-0.119
17,CTCTATGC,0.0465
18,AACAACTA,0.0774
19,TCCAGCGA,-0.0733
20,CACCGTAG,-0.231
21,ACTCCTAT,-0.0355
22,CGGGTACA,-0.185
23,CGCCCGCG,-0.0704
24,CGTTGGTC,-0.0699
25,CCTTTCGC,0.0567

row,Sequence,PBM E-score
1,CTACTCTC,-0.116
2,GGCCTATA,-0.255
3,CCATCGCA,-0.0392
4,AATTTTAG,-0.034
5,AGTGCGGC,-0.129
6,ATACGCTC,0.071
7,ACCTTCAA,-0.0086
8,ACGAGCAC,0.0254
9,CAAGTCGC,-0.155
10,CCATCTCA,-0.0126
11,AGAAATTG,0.158
12,GTATCATA,0.274
13,CGGTGAAG,-0.311
14,ACGTCAGA,0.00243
15,CTGGACTC,-0.129
16,AAGCCTTC,-0.135
17,GCCAAGCA,-0.119
18,ATAGCCCC,-0.24
19,CCATCAAA,0.158
20,CAGATCAA,-0.088
21,CTAATACA,0.161
22,GCACACGC,-0.159
23,AAATAACA,0.171
24,CCAGAAGC,-0.122
25,TAATCTAA,0.0877

row,Sequence,PBM E-score
1,GATACGGC,-0.204
2,AGTGGGAT,0.166
3,CCTTCCCA,0.00213
4,AAGACCCA,-0.196
5,TCGTGGAA,0.263
6,AAGAAGCC,0.0802
7,CGAGATTA,0.244
8,ACATTACT,0.13
9,GAGTAATA,0.26
10,CCATTAAC,0.131
11,AGACTCTC,-0.155
12,CTGTGCGC,-0.103
13,TACCTAAA,0.185
14,GGGCGGAC,-0.224
15,GTTGAAAC,0.0445
16,TGGCACAA,-0.096
17,ATAACTGA,0.175
18,CTTCACAC,0.0747
19,AGGTTCAA,0.0218
20,ATAGTAGG,0.114
21,AGTTGAAA,-0.0098
22,CGTTTTGA,0.0112
23,CCAGTGGA,-0.127
24,CCGACAAG,0.0518
25,CCCTCTCC,-0.287

row,Sequence,PBM E-score
1,ATATGTGA,0.227
2,CATCTGCG,0.0286
3,AGATGCGA,0.0696
4,CTCCGGGA,-0.0715
5,CCAAGAGA,-0.0651
6,CACGTTGA,-0.095
7,GGTTCGGA,-0.119
8,ATTTAACC,0.108
9,GTTTAGCA,-0.0365
10,AGCAAACG,-0.0626
11,ATGAGCGA,0.082
12,TCTACAGA,-0.124
13,ACCTCGGA,0.038
14,AAGCGAGA,0.102
15,GCGGCACA,0.0275
16,GACCCGGC,-0.244
17,CAAATGAC,-0.0347
18,GCGTAGTA,-0.0499
19,AATAGCAC,-0.152
20,GTCATCAA,0.153
21,GCCAGGCC,-0.168
22,AACTCAAC,0.0643
23,ATGGGATG,-0.0392
24,ACCTAAGG,-0.0413
25,ATTTTCGC,0.103

# Not a retest: entries from further up.
row,Sequence,PBM E-score
19,AATAGCAC,-0.152
20,GTCATCAA,0.153
21,GCCAGGCC,-0.168
22,AACTCAAC,0.0643
23,ATGGGATG,-0.0392
24,ACCTAAGG,-0.0413
25,ATTTTCGC,0.103

# (further entries)

row,Sequence,PBM E-score
1,CTGGCACA,-0.29
2,AAGACCGT,-0.216
3,GTCCAACA,-0.00403
4,CTTATGGC,0.0729
5,TAACTCCA,-0.111
6,GCGCCTCC,-0.152
7,CTAGCCGA,-0.0174
8,CTCGCTGC,-0.0858
9,AGTCCCGA,-0.202
10,CACTTGTC,0.0322
11,GGGCTTTA,-0.256
12,ACGCTGAA,0.00546
13,AGCATCAA,0.149
14,ACGTCCGG,-0.0967
15,AGTTAGGC,-0.00545
16,AACGTCAT,0.106
17,ATCACTAC,0.0148
18,TGTCTTAA,-0.0348
19,AGTTCGGA,0.0572
20,ATTTGCAA,0.153
21,GGAACGCC,-0.118
22,ACGGCCTG,-0.182
23,CCACCTGA,0.0554
24,AAAATCAA,0.107
25,AACACCGC,-0.0233

# An excerpt of these results, with bars between the fields.
row | Sequence | PBM E-score
2 | AAGACCGT | -0.216
3 | GTCCAACA | -0.00403
4 | CTTATGGC | 0.0729
5 | TAACTCCA | -0.111

# The list continues:

row,Sequence,PBM E-score
1,ACTGCGTG,-0.249
2,GCAATCTA,0.0858
3,GCAGCTCA,-0.015
4,TGATAACA,0.199
5,CAGCGATC,-0.00263
6,GTCACTCA,0.142
7,CAGGCGGA,0.0778
8,TAAAGAGA,0.0262
9,GACACCAC,-0.124
10,AGATAAAT,0.171
11,CGTAGTGA,0.00124
12,ACGGCAGC,0.00373
13,ACATACTC,0.0818
14,AATGTAGC,-0.0195
15,AGGTCGCA,0.0331
16,AGGAGGGA,-0.229
17,GTTTCAAA,0.00863
18,CATCGTGG,-0.16
19,ACCGTGGG,-0.348
20,TGCAGTAA,0.00132
21,GTCCGGAA,0.0617
22,ACTAGGCA,-0.0515
23,CACGCACG,-0.175
24,ACAGAGAT,0.137
25,ATTGGGTG,0.282

row,Sequence,PBM E-score
1,ATTTTGCC,-0.0315
2,ATATTGCG,0.176
3,GTCCTCGA,-0.0336
4,ACTCATTA,0.172
5,ACAGAGCA,0.112
6,AATATCTC,0.113
7,CAACGCGC,0.201
8,AGCAACAA,0.143
9,ACGGTGAT,0.036
10,TAATCCCA,0.0937
11,ATCCGTCG,0.036
12,GATTGGAC,0.0786
13,CGCCTCAG,-0.153
14,ATTTGATC,0.0618
15,AATACCCC,0.0429
16,CCTATCTA,-0.0781
17,ATGGAATA,0.322
18,AAAACCAG,0.0307
19,CCTAGAAC,0.00991
20,ACAACGCA,-0.00796
21,CCACTAAA,0.0784
22,AGTTGGAG,0.0277

# From the supplement of paper PMC3334620
